# Earlier results, collected in US20230128194A1, “METHODS AND COMPOSITIONS TO ALTER HEPATIC GABA RELEASE TO TREAT OBESITY-RELATED CONDITIONS” (ARIZONA BOARD OF REGENTS ON BEHALF OF THE UNIVERSITY OF …, priority 2017, published 2023).
# By UniProt entry, the sequences of proteins in these tests, tags left out. Residues count along the entry.
# UniProt P61922, 29-500: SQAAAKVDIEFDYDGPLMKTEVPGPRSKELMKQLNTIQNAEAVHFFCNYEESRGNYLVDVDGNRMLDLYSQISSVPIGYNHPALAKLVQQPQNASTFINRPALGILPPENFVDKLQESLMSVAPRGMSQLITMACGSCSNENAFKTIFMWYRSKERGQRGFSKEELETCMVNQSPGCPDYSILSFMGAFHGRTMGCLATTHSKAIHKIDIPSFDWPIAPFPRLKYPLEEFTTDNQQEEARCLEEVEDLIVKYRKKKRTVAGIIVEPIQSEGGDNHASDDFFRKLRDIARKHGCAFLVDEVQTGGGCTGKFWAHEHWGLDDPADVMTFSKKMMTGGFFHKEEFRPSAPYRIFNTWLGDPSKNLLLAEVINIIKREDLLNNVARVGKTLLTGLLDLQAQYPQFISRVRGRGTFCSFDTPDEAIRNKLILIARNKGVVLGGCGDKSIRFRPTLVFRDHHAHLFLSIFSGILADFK
# Some of these results come from one statement about several compounds together.
# Molecular target: T1, hepatic GABA-T (Mus musculus, UniProt P61922)
# T1 construct: Both reduce hepatic GABA-T activity by over 90% within two days; from tissue; host or cells: liver of C57BL/6J mice
# Conditions: within two days; cited from earlier work
structure (smiles),measurement,value
"NCCOS(=O)(=O)O [EOS, ethanolamine-O-sulfate]",reduction of hepatic GABA-T activity,over 90%
